From patent publication EP3783012A1 (priority 2019, dated 2021) come the findings set out here.

Strings that start with PEPTIDE1 are HELM notation: dots part the residues, brackets hold end groups and non-standard residues.

A short description of the series: peptide made by a vendor (Fmoc solid-phase peptide synthesis). The following applies: whole synthesis, reverse-phase HPLC.

Consider “PEPTIDE1{V.R.G.L.A.P.K.K.S.L.W.P.F.G.G.P.F.K.S.P.F.N}$$$$V2.0”, for which the “final HPLC purity” value is 95-99%.
